# Experimental data: the supplement of paper PMC4604168 (melanoma cell lines)
# The other results are listed elsewhere or left out. Repeats are few or missing, and single values can be far off.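 The apoptosis fraction was the count of cleaved-PARP antibody-stained nuclei relative to all DNA-stained nuclei, imaged in 1,536-well plates. Screening doses were set so most cells survived, and baseline and induced cleaved-PARP levels vary greatly across cell lines.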
# Tests used:
# Test in all cases: cleaved PARP positive nuclei fraction relative to DMSO control; melanoma cells; higher = more apoptosis
# Settings in all cases: library dose: low library concentration; 72 h
# MZ2-MEL = test system: MZ2-MEL
# MeWo = test system: MeWo
# RPMI7951 = test system: RPMI7951
# RVH-421 = test system: RVH-421
# SkMel28 = test system: SkMel28
# SkMel2 = test system: SkMel2
# SkMel30 = test system: SkMel30
# UACC62 = test system: UACC62
Structure (SMILES),cleaved PARP positive nuclei fraction (MZ2-MEL) [%],cleaved PARP positive nuclei fraction (MeWo) [%],cleaved PARP positive nuclei fraction (RPMI7951) [%],cleaved PARP positive nuclei fraction (RVH-421) [%],cleaved PARP positive nuclei fraction (SkMel28) [%],cleaved PARP positive nuclei fraction (SkMel2) [%],cleaved PARP positive nuclei fraction (SkMel30) [%],cleaved PARP positive nuclei fraction (UACC62) [%]
"CCN(CC)CCNC(=O)c1c(C)[nH]c(/C=C2\C(=O)Nc3ccc(F)cc32)c1C [sunitinib] + C[As](C)SC[C@H](NC(=O)CC[C@H](N)C(=O)O)C(=O)NCC(=O)O [Darinaparsin] (first compound 0.4 µM, partner dose 0.4 µM)",69.9,183,66.3,185,26.9,49.4,102,63.2
"Clc1ccc(Nc2nnc(Cc3ccncc3)c3ccccc23)cc1 [vatalanib] + C[As](C)SC[C@H](NC(=O)CC[C@H](N)C(=O)O)C(=O)NCC(=O)O [Darinaparsin] (first compound 2 µM, partner dose 0.4 µM)",111,110,44.5,180,91.1,96.5,21.3,186
"N.N.[Cl][Pt][Cl] [cisplatin] + CCCS(=O)(=O)Nc1ccc(F)c(C(=O)c2c[nH]c3ncc(Cl)cc23)c1F [PLX4720] (first compound 1.6 µM, partner dose 0.08 µM)",135,52.8,158,102,66.3,125,17.8,122
"COc1ccc(C2=N[C@@H](c3ccc(Cl)cc3)[C@@H](c3ccc(Cl)cc3)N2C(=O)N2CCNC(=O)C2)c(OC(C)C)c1 [Nutlin-3] + N.N.[Cl][Pt][Cl] [cisplatin] (first compound 0.1 µM, partner dose 1.6 µM)",105,123,101,180,51.8,15.8,105,232
"COc1cc([C@@H]2c3cc4c(cc3[C@@H](O[C@@H]3O[C@@H]5CO[C@@H](C)O[C@H]5[C@H](O)[C@H]3O)[C@H]3COC(=O)[C@H]23)OCO4)cc(OC)c1O [etoposide] + C[As](C)SC[C@H](NC(=O)CC[C@H](N)C(=O)O)C(=O)NCC(=O)O [Darinaparsin] (first compound 0.02 µM, partner dose 0.4 µM)",20,194,86,178,85.1,88.1,55.2,63.9
"CC1(C)CCC(c2ccc(Cl)cc2)=C(CN2CCN(c3ccc(C(=O)NS(=O)(=O)c4ccc(N[C@H](CCN5CCOCC5)CSc5ccccc5)c(S(=O)(=O)C(F)(F)F)c4)cc3)CC2)C1 + Cn1cc(C2=C(c3cn(C4CCN(Cc5ccccn5)CC4)c4ccccc34)C(=O)NC2=O)c2ccccc21 [Enzastaurin] (first compound 0.4 µM, partner dose 0.8 µM)",245,187,158,97.9,74.6,136,172,37.5
"Cn1cc(C2=C(c3cn(C4CCN(Cc5ccccn5)CC4)c4ccccc34)C(=O)NC2=O)c2ccccc21 [Enzastaurin] + CCN(CC)CCNC(=O)c1c(C)[nH]c(/C=C2\C(=O)Nc3ccc(F)cc32)c1C [sunitinib] (first compound 0.8 µM, partner dose 0.4 µM)",157,65,208,41,195,147,43.9,150
"Cn1cc(C2=C(c3cn(C4CCN(Cc5ccccn5)CC4)c4ccccc34)C(=O)NC2=O)c2ccccc21 [Enzastaurin] + CN(c1ncccc1CNc1nc(Nc2ccc3c(c2)CC(=O)N3)ncc1C(F)(F)F)S(C)(=O)=O [PF562271] (first compound 0.8 µM, partner dose 0.08 µM)",211,112,209,80.1,69.6,87.3,69.1,54.5
"O=c1[nH]nc(Sc2ncc([N+](=O)[O-])s2)n1-c1ccc2c(c1)OCCO2 + N.N.[Cl][Pt][Cl] [cisplatin] (first compound 0.2 µM, partner dose 1.6 µM)",66.3,103,52.8,139,85.3,58.3,71,180
"Cn1cc(C2=C(c3cn(C4CCN(Cc5ccccn5)CC4)c4ccccc34)C(=O)NC2=O)c2ccccc21 [Enzastaurin] + COc1ccc(Cl)c(Nc2nc3ccccc3nc2NS(=O)(=O)c2cccc(NC(=O)C(C)(C)N)c2)c1 [XL147] (first compound 0.8 µM, partner dose 0.8 µM)",153,47.6,200,85.6,70.2,208,83.7,226
"N.N.[Cl][Pt][Cl] [cisplatin] + Nc1nc(F)nc2c1ncn2[C@@H]1O[C@H](CO)[C@@H](O)[C@@H]1O [fludarabine] (first compound 1.6 µM, partner dose 0.2 µM)",118,473,46.1,71,93.8,335,573,68.4
"Cn1cc(C2=C(c3cn(C4CCN(Cc5ccccn5)CC4)c4ccccc34)C(=O)NC2=O)c2ccccc21 [Enzastaurin] + CS(=O)(=O)CCNCc1ccc(-c2ccc3ncnc(Nc4ccc(OCc5cccc(F)c5)c(Cl)c4)c3c2)o1 [lapatinib] (first compound 0.8 µM, partner dose 0.8 µM)",72.6,69.9,254,122,43.7,244,26.4,73.4
"Cc1cc(Nc2cc(N3CCN(C)CC3)nc(/C=C/c3ccccc3)n2)n[nH]1 + N.N.[Cl][Pt][Cl] [cisplatin] (first compound 0.04 µM, partner dose 1.6 µM)",75.4,454,76.2,78.3,84.6,84.2,78.3,379
"NC1(c2ccc(-c3nc4ccn5c(=O)[nH]nc5c4cc3-c3ccccc3)cc2)CCC1 + C[As](C)SC[C@H](NC(=O)CC[C@H](N)C(=O)O)C(=O)NCC(=O)O [Darinaparsin] (first compound 0.4 µM, partner dose 0.4 µM)",79.7,49.6,54,68.5,200,110,75.9,161
"Cc1cc(Nc2cc(N3CCN(C)CC3)nc(Sc3ccc(NC(=O)C4CC4)cc3)n2)n[nH]1 [Tozasertib] + N.N.[Cl][Pt][Cl] [cisplatin] (first compound 0.006 µM, partner dose 1.6 µM)",5300,129,153,147,167,129,80.5,67.5
"Cn1sc(=O)n(Cc2ccccc2)c1=O + N.N.[Cl][Pt][Cl] [cisplatin] (first compound 0.4 µM, partner dose 1.6 µM)",180,315,69.7,56.9,73.4,98.4,150,58.2
"CS(=O)(=O)c1ccc(C(=O)Nc2ccc(Cl)c(-c3ccccn3)c2)c(Cl)c1 [vismodegib] + N.N.[Cl][Pt][Cl] [cisplatin] (first compound 1 µM, partner dose 1.6 µM)",70.4,181,63.1,210,91.8,65.3,43.9,45.4
"COc1cc([C@@H]2c3cc4c(cc3[C@@H](O[C@@H]3O[C@@H]5CO[C@@H](C)O[C@H]5[C@H](O)[C@H]3O)[C@H]3COC(=O)[C@H]23)OCO4)cc(OC)c1O [etoposide] + Cn1cc(C2=C(c3cn(C4CCN(Cc5ccccn5)CC4)c4ccccc34)C(=O)NC2=O)c2ccccc21 [Enzastaurin] (first compound 0.02 µM, partner dose 0.8 µM)",59.3,59.8,78.1,132,45.5,70.3,65.6,47.4
"Cn1cc(C2=C(c3cn(C4CCN(Cc5ccccn5)CC4)c4ccccc34)C(=O)NC2=O)c2ccccc21 [Enzastaurin] + C=C(c1ccc(C(=O)O)cc1)c1cc2c(cc1C)C(C)(C)CCC2(C)C [Bexarotene] (first compound 0.8 µM, partner dose 2 µM)",59.3,477,111,134,104,150,107,75
"N.N.[Cl][Pt][Cl] [cisplatin] + Clc1ccc(Nc2nnc(Cc3ccncc3)c3ccccc23)cc1 [vatalanib] (first compound 1.6 µM, partner dose 2 µM)",39.2,248,128,54.1,44.8,627,120,227
"C[C@@H](N)c1ccc(C(=O)Nc2ccnc3[nH]ccc23)cc1 + N.N.[Cl][Pt][Cl] [cisplatin] (first compound 0.4 µM, partner dose 1.6 µM)",238,62.8,63,135,183,133,87.4,90.5
"CCCCCCCCc1ccc(CCC(N)(CO)CO)cc1 [fingolimod] + N.N.[Cl][Pt][Cl] [cisplatin] (first compound 2 µM, partner dose 1.6 µM)",96.9,65.1,224,269,88.3,83.3,45.9,36.5
"CC[C@]1(O)C[C@H]2CN(CCc3c([nH]c4ccccc34)[C@@](C(=O)OC)(c3cc4c(cc3OC)N(C=O)[C@H]3[C@@](O)(C(=O)OC)[C@H](OC(C)=O)[C@]5(CC)C=CCN6CC[C@]43[C@@H]65)C2)C1 [vincristine] + C[As](C)SC[C@H](NC(=O)CC[C@H](N)C(=O)O)C(=O)NCC(=O)O [Darinaparsin] (first compound 0.0001 µM, partner dose 0.4 µM)",197,322,112,187,386,141,129,946
"CCCCCCCCCCCCCCCCCCOP(=O)([O-])OC1CC[N+](C)(C)CC1 [Perifosine] + N.N.[Cl][Pt][Cl] [cisplatin] (first compound 0.4 µM, partner dose 1.6 µM)",170,17.8,50.1,50.9,38.8,84,57.8,123

# Complete entries as entered above. Values in the order: cleaved PARP positive nuclei fraction (MZ2-MEL) [%] | cleaved PARP positive nuclei fraction (MeWo) [%] | cleaved PARP positive nuclei fraction (RPMI7951) [%] | cleaved PARP positive nuclei fraction (RVH-421) [%] | cleaved PARP positive nuclei fraction (SkMel28) [%] | cleaved PARP positive nuclei fraction (SkMel2) [%] | cleaved PARP positive nuclei fraction (SkMel30) [%] | cleaved PARP positive nuclei fraction (UACC62) [%]
# Clc1ccc(Nc2nnc(Cc3ccncc3)c3ccccc23)cc1 [vatalanib] + C[As](C)SC[C@H](NC(=O)CC[C@H](N)C(=O)O)C(=O)NCC(=O)O [Darinaparsin] (first compound 2 µM, partner dose 0.4 µM) as listed: 111 | 110 | 44.5 | 180 | 91.1 | 96.5 | 21.3 | 186
# COc1ccc(C2=N[C@@H](c3ccc(Cl)cc3)[C@@H](c3ccc(Cl)cc3)N2C(=O)N2CCNC(=O)C2)c(OC(C)C)c1 [Nutlin-3] + N.N.[Cl][Pt][Cl] [cisplatin] (first compound 0.1 µM, partner dose 1.6 µM) as listed: 105 | 123 | 101 | 180 | 51.8 | 15.8 | 105 | 232
